About 3,700 (7%) of roughly 53,000 sequences were called active.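 The calls were made as follows: active = gene knockdowns whose robust z-score for IL-1 alpha signal is at least 2 or at most -2, so actives lie on both sides; inactive = the rest.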 The list shows a part of the results.
Experiment: Components of the Cytosolic LPS Sensing Pathway: Gene Identification via Genome-wide siRNA Screen;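 also: robust z of the log signal after scaling to non-targeting control siRNA wells of the plate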
Details: RAW264.7 macrophages, IL-1a HTRF, actives lie on both sides, screened at 100 nM (by protocol), cells primed 5 h with Pam3CSK4 first
Procedure, shortened: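 IL-1a HTRF of supernatants after 24 hour LipidA transfection of Pam3CSK4-primed (5 hours) RAW264.7 cells, 48h post-siRNA transfection (100 nM). Scores: percent of plate negative-control median, then log-based robust z-score.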

| Sequence | z-score |
| --- | --- |
| CCUUGAUGUCACAUGUAUUTT against Ankrd49 | inactive: -1.03 |
| GGAGUUUGAACAAGAAAUATT against Prss12 | inactive: 1.11 |
| GGCUUACCAACAGCAAACATT against Fzd1 | inactive: -0.215 |
| GCUUUGAGAGGUGUUGAUATT against Gm6116 | inactive: -0.864 |
| CCCUUUAUACCUUUGUGUATT against Stat5a | inactive: -0.0407 |
| GGAUUUUUAACCAAAGGAATT against Gnpnat1 | inactive: -0.628 |
| GGAGUAGCAUCAAUGUUUATT against Ebpl | inactive: 0.275 |
| GGACUGUGCAACUUUGUGGTT against Timp3 | inactive: -0.634 |
| CCAUUUGUAACAUGAUAGCTT against Ctss | inactive: -0.157 |
| GGAAGUCAAGAAAGUGGCCTT against H1f0 | inactive: -0.294 |
| GGCAGAUAAAGAUGGAGCATT against Ndp | active: 3.69 |
| CCGAUUCAUUGAGUCUGGGTT against Lfng | inactive: 0.486 |
| GGUUUCAGGUGGACUUCCATT against Lgals12 | inactive: -1.84 |
| GCGAAGAAGAAGAUAGUAATT against Zranb2 | inactive: -0.654 |
| GGUUCGUGUAACCAAAGUCTT against Cavin4 | inactive: 0.0957 |
| GGUAGAAGACAUUCAGAUGTT against Nr4a2 | inactive: 1.77 |
| GGAACAGCUAAAGUUGGGATT against Kcnj9 | inactive: 0.5 |
| GGAACGAGACAGAAUGGUCTT against Rictor | inactive: -0.836 |
| GGCCCAGAUUGACCAGUAUTT against Rtn2 | inactive: -1.21 |
| GCCACGUGAUAGUAAUAAATT against Psmd12 | inactive: 0.0999 |
| GAAGCCUAAUCCCUUAAUCTT against Oas1g | inactive: 1.07 |
| GGGCCUUUAUGAGUCACACTT against H2-Aa | inactive: -0.244 |

A second format for part of the listing above:
GGCUUACCAACAGCAAACATT against Fzd1
  z-score: inactive: -0.215
GGCAGAUAAAGAUGGAGCATT against Ndp
  z-score: active: 3.69
GGUAGAAGACAUUCAGAUGTT against Nr4a2
  z-score: inactive: 1.77
GGAACAGCUAAAGUUGGGATT against Kcnj9
  z-score: inactive: 0.5

Further entries.

| Sequence | z-score |
| --- | --- |
| CCCACAGUUGCAAAUUGUGTT against Olfr804 | inactive: -1.67 |
| GGAAACAUGGGUUUAUUUGTT against Bche | inactive: -0.0931 |
| GGUUAUUUCUGAAAUGUGCTT against Fbxl4 | inactive: -1.3 |
| GCCAAUAAAUCUCUUCCAATT against Tmem223 | inactive: 0.277 |
| CGAUCGAAAUCAAGUCGAUTT against Septin9 | inactive: 0.415 |
| GGGAGAUUAAUCAAGAACUTT against Ccnc | inactive: 0.809 |
| CGUGUUGAUAACUUUAACGTT against Abca9 | inactive: 0.556 |
| CCGGGUCAGGACAAUUCAUTT against Hsd17b1 | inactive: 1.87 |
| GGAGAACACAAAAUCAUGGTT against Xrn2 | inactive: -0.841 |
| GGCAUCCUUGUUCACAUCCTT against Zfy1 | inactive: 0.77 |
| GGACUUUCGAGACAAGCUGTT against Barhl1 | inactive: -1.21 |
| GGCCUCACAAAAGAACACCTT against Nppb | inactive: -1.12 |
| GCUCGGUUAAGAGCCCAUGTT against Pabpn1l | active: -2.11 |
| CCAAUGGUGUAAUUAGAAATT against Olfr571 | inactive: 0.195 |
| GGAACAUCCAGUCAUUUUATT against Zfp14 | inactive: 0.233 |
| GGUGGACAACCAGUUCUACTT against Mapk10 | inactive: 1.27 |
| GGGUACAACUCUUUGAAGATT against Mnat1 | inactive: 0.535 |
| GCAACAGUGAAAUAGCACATT against Krit1 | inactive: 0.179 |
| GGUCAAAUCUCGACAAAUCTT against Ptprm | inactive: 0.0717 |
| GCAGAUUAACAUCUUCUUUTT against Dync1i2 | inactive: 1.45 |
| CCUACAGUAUGUGGCAGAUTT against Grb7 | inactive: -1.49 |
| GCGUAAUUCCAGCAGAUGUTT against Mepe | inactive: 1.74 |

| Sequence | z-score |
| --- | --- |
| CGGACAUAGUCCAUCAUUCTT against Aig1 | inactive: 1.47 |
| GGAAAAGCAGAGAAGAUAUTT against Atrip | inactive: -1.7 |
| GCUAACAAGCUAGCAUUUATT against Ltv1 | inactive: -1.17 |
| GGAAAUGCCUAAUUUUCACTT against Snapc4 | inactive: 0.491 |
| GCCUCUAUAUCUUUCACUGTT against Olfr1209 | active: -2.16 |
| GGAAUUGCCAAUCAAUGAUTT against Gpr141b | inactive: -0.405 |
| GGUGGUCAUUUAUUCAUGUTT against Cd55b | inactive: -0.0607 |
| GCCCACUAUUAUCGAUAUGTT against Pcgf1 | inactive: 0.281 |
| GGUCAUAUCUCACCUAAGUTT against Nxph3 | inactive: -0.833 |
| GGACAAUUUUGACGAGAUGTT against Tubg1 | inactive: 0.238 |
| GCUAGCCAAAAAAAUCCGGTT against Cachd1 | inactive: -0.826 |
| GGUGAAAUGCUUGACUAAATT against Ube2f | inactive: 0.433 |
| GCAAUCAUUUCUUCAUCUATT against Olfr148 | inactive: 0.255 |
| CCCUCAUCAAGGGCAUAGATT against Gpd1l | inactive: -1.11 |
| GCCUUGACAGAGGUAUUGATT against Ovgp1 | inactive: -1.46 |
| GAAAAAUAUCCUGGCAGUGTT against Olfr824 | inactive: 0.656 |
| GGACUUCGGCACUGCUUAUTT against Prmt9 | inactive: -0.837 |
| GGUUGUAGGAGAGGAAGCCTT against Apobr | inactive: -0.572 |
| GCAGCCUUAUACUUCUCACTT against Gtdc1 | inactive: -0.702 |
| GCAUGCUGAGGGACACAGUTT against 1810055G02Rik | inactive: -1.6 |
| CCUGGUACAAUCAAACUGCTT against Rnf222 | inactive: 0.516 |
| GCCCUAGCAAAAUAUGUUUTT against Rbm26 | inactive: 0.376 |

| Sequence | z-score |
| --- | --- |
| GGUACUCCUCCAUUAUCACTT against Olfr631 | inactive: -0.185 |
| GGUUCUCCUCCCAAAUUAGTT against Nptxr | inactive: 0.709 |
| GGAAUCCUUUAUGGUUUUCTT against Pald1 | inactive: 1.9 |
| CCUUUAUAACUGUGGUUGGTT against Vmn1r209 | inactive: 0.628 |
| CGUUCACUUUUGAAAACGUTT against Bysl | inactive: 0.38 |
| GGCAUUUAUGUCGAACAAGTT against Mbtd1 | inactive: -0.616 |
| GGCGACAGUUGUUUUUGUGTT against Nlrp4b | inactive: -0.588 |
| GCUUAUCCAGUGUAUUGUGTT against Amfr | inactive: -0.0874 |
| GCGUAUGCUUUUGUGCACATT against Anapc7 | inactive: 0.831 |
| GGAGAAUUGCCUAUUUGAATT against Cdhr4 | inactive: -0.0667 |
| GGUAACCCUUACAGAUAUGTT against 4921507P07Rik | inactive: 1.3 |
| CGCCCUAUACCGAUACUUUTT against Kcnk5 | inactive: 0.00385 |
| GGAUUUUAGUGAAUUCCAUTT against Asah1 | inactive: 0.0675 |
| GGUGUGCGCAGCAUCAAGATT against Guk1 | inactive: 0.146 |
| GGAACUACCUUGUAAAAUUTT against Rbp7 | inactive: -1.27 |
| GCUUAUCCUGGGAAACUUCTT against Fcnb | inactive: -1.05 |
| GGAACAGGAAGAAUUCCUATT against Tmem106b | inactive: -0.369 |
| GGCCAUAAAGUUAACAACATT against Tbx19 | inactive: -0.971 |
| GGAUGCGCUGAUAUCAGUATT against Olfr370 | inactive: 1.3 |
| GCAGUACGGGACAUCCACUTT against Wdr46 | inactive: -0.226 |
| GCACGUCCAUUCUGCUUUCTT against Smco4 | active: 2.4 |
| GGAAUGGGAUUACACCUACTT against Mymk | active: 2.67 |

| Sequence | z-score |
| --- | --- |
| GGGAGGUGCAGAUAGGAUUTT against Csrp1 | inactive: 0.912 |
| GGUGCUAAGUUCAAAGUCGTT against Pdcd11 | inactive: -1.11 |
| GGAUCAAUCAAUGACAGUGTT against Taf8 | inactive: -0.716 |
| CCAGAGUCUUUGGUAAUGCTT against Krtap3-3 | inactive: 1.07 |
| GGAUUACAUUUGUUUUACCTT against Nim1k | inactive: -0.131 |
| CCUCUUUAGUCCUCUAAAATT against Rab15 | inactive: -0.144 |
| GCAUGAUGACAGGAAGGACTT against Olfr527 | inactive: 0.58 |
| CCUGCCUAGAUGUUUCAGCTT against Ifna13 | inactive: -0.196 |
| GGGUGAAAGAAAGAAAGAATT against Plp1 | inactive: -0.883 |
| GGCUGGCUUUGAACUCAAUTT against Zfp36 | inactive: -1.28 |
| CCAGAUGGGCCCAAUGCAUTT against Ccl7 | inactive: -1.93 |
| GCGUGUCAGGGAGUAUUACTT against Igbp1b | inactive: -0.562 |
| CCUUUAUUUCUGUGAAUCUTT against Olfr1467 | inactive: 0.631 |
| GGCCUAAGUAAACACAAAATT against Zkscan3 | inactive: 0.218 |
| GGAAGUCGAGUUGAAAUCGTT against Rida | inactive: 0.755 |
| GCACAUAGCAUCCACUCCATT against Gm4793 | active: -2.56 |
| GGGAAACAGAAGUAUCUAUTT against Ar | inactive: -0.708 |
| GGAAGAAAUGGACACCAGATT against Slc12a6 | inactive: -0.0173 |
| GGACUCCUUCCACCACAAUTT against Aifm2 | inactive: -0.2 |

— PubChem BioAssay AID1508600 (Functional Genomics Laboratory (NCATS/FGL), 2020)
